# Laboratory results reported in PubChem BioAssay AID623959 (National Center for Advancing Translational Sciences (NCATS), 2012).
# By UniProt entry, the sequences of proteins in these tests, tags left out.
# UniProt Q8NER1, whole entry, looked up: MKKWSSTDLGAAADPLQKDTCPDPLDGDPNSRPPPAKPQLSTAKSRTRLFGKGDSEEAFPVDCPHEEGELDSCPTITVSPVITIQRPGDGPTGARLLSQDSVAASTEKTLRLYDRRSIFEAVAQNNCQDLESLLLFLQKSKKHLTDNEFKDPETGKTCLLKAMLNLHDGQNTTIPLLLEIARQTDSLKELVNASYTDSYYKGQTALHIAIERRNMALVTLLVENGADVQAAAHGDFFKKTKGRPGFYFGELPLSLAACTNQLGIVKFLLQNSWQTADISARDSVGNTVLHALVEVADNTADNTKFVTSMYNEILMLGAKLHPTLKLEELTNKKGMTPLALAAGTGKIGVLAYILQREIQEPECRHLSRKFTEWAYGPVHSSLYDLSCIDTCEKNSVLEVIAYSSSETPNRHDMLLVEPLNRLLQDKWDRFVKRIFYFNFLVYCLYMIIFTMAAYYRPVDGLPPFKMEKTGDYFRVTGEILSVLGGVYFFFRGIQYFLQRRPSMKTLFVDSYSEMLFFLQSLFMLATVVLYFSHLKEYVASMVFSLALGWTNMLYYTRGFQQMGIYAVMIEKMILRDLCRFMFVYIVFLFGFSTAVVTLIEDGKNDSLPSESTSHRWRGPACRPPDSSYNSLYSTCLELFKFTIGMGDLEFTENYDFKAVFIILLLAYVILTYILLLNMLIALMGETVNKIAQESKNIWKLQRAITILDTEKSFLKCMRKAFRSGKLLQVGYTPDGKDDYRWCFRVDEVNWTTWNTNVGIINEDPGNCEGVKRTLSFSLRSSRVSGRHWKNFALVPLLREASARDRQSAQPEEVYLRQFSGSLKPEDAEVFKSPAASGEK
# Fewer than 10 of roughly 1,400 compounds were called active. Inconclusive means that the source gave no clear call. Such entries were picked first, then a sample of the others. Calls come from the whole dose curve; as a rule, active = well fitted curve in the direction sought with a large enough effect; inconclusive = small, poorly fitted or top-dose-only effect, or another doubt; inactive = no such curve, though single readings can be large or run the other way. Where the call is inconclusive, the potency comes from a doubtful curve fit.
# Target: Transient receptor potential cation channel subfamily V member 1 (Homo sapiens) (UniProt Q8NER1)
# Experiment: qHTS Assay for Compounds that Act as Potentiators of the Vanilloid Receptor 1: Hit Validation
# Conditions: TRPV1-expressing cells, Fluo-8 calcium influx, capsaicin EC20; series mostly up to 42.1 µM
# From the text: The transient receptor potential ion channel, family V, number 1, (TRPV1) is one of the most important molecular transducers of painful stimuli and a potential target for analgesic drug development. Although recent clinical trials with orthosteric antagonists have not produced a successful drug because of a hyperthermia side effect and their tendency to block thermal noxious pain, this ion channel is undeniably well placed in the pain pathway, and the idea of blocking pain signals before they enter the CNS is an excellent concept and of proven efficacy when TRPV1 agonists are used. We propose a new approach involving allosteric modulation to impose an activity-dependent constraint within the context of inflammation and tissue damage that would alter the responsiveness of the channel in a way that an orthosteric vanilloid antagonist cannot achieve. We believe that the allosteric modulator approach has not been explored for this target. The main goal of this proposal is to identify additional, new, potent allosteric modulators of TRPV1 that can be used to investigate TRPV1 function. Our recent report provides evidence of proof of concept, but the compounds are just at the edge of utility in terms of potency. […] The question of whether they can be used as analgesic agents is complex, but if suitable compounds are identified then testing for analgesic properties will be conducted. Compounds identified as agonists were re-tested in the primary screen for hit validation. NIH Chemical Genomics Center [NCGC] NIH Molecular Libraries Probe Centers Network [MLPCN] MLPCN Grant: MH089480 Assay Submitter (PI): Michael Iadarola, National Institute of Dental and Cranofacial Research
# Upon TRPV1 activation in TRPV1 cells, the channel opens and extracellular cations flow through the channel into the cytosol. A calcium binding dye (Fluo-8) becomes fluorescent when bound to calcium. This dye is pre-loaded into cells and is used as a marker for calcium influx. The amount of accumulated calcium is precisely quantified using the FDSS kinetic reader and the calcium dye. For the HTS assay, freshly prepared cells are plated at a density of 2000/well in 3 ul medium in 1536-well plates and cultured overnight at 35.5C. Cells will be loaded with 1 ul of the homogeneous calcium dye (ABD Bioquest) at room temperature for 40 to 90 minutes. Plates will be loaded into the FDSS kinetic reader and a 1 sec / cycle for 10 second baseline signal will be measured. Compound library will then be added with a pintool at 23 nl and measured kinetically for 3 minutes. This portion of the read is considered the agonist portion of the screen. Following the 3 minutes of incubation, an on board pipettor will deliver 1 ul of capsaicin for a final concentration equal to the EC20. Signal will be measured kinetically for an additional 2 minutes. This portion of the read is considered the allosteric enhancer portion of the screen. The FDSS reader has a standard filter set capable of measuring calcium bound Fluo-8 (ex=480 and em=520 nm).
# Potency is the fitted concentration of half-maximal effect.
row,SMILES,Potency
1,Cc1nc(C(F)(F)F)ccc1C(=O)Nc1ccc(C(F)(F)F)cn1,inactive
2,O=C(Cc1c[nH]c2ccccc12)N1CCc2ccccc21,"inconclusive: 1.03 µM [activator, full curve, poor fit]"
3,COc1ccccc1-c1nnc(SCC(=O)NNC(=O)c2ccccc2F)n1C,"inconclusive: 0.0103 µM [activator, full curve, poor fit]"
4,Cc1ccc2c(c1)nnn2C1CCN(C(=O)NCc2ccccc2)CC1,inactive
5,COc1cc(-c2nc3ccccn3c2/N=C/c2cccc(OC)c2O)ccc1O,"inconclusive: 16.3 µM [activator, partial curve, poor fit]"
6,CC(=O)Nc1ccc(NC(=O)c2ccc(NS(=O)(=O)c3cc(C(C)(C)C)ccc3C)cc2)cc1,"inconclusive: 14.5 µM [activator, full curve, poor fit]"
7,Cc1nn(CC(=O)c2ccc(Cl)s2)c(C)c1[N+](=O)[O-],"inconclusive: 0.0183 µM [activator, full curve, poor fit]"
8,O=C(N/N=C/c1cccn1-c1cccc(C(=O)O)c1)Nc1ccccc1,"inconclusive: 0.578 µM [activator, full curve, poor fit]"
9,Cc1cccc(NC(=O)CN2C(=O)S/C(=C\c3ccc(O)c([N+](=O)[O-])c3)C2=O)c1,"inconclusive: 25.8 µM [activator, single point]"
10,CCOC(=O)N/N=C1\CCS(=O)(=O)c2ccc(Cl)cc21,inactive
11,CCS(=O)(=O)C1=NN2C(=N)/C(=C\c3ccc(OCCOc4cccc(OC)c4)c(OC)c3)C(=O)N=C2S1,inactive
12,Cc1ccc(C(=O)Nc2ccc(S(=O)(=O)N3CCCC3)cc2)cc1,"inconclusive: 9.03 µM [activator, full curve, poor fit]"
13,CCC(=O)Nc1cccc(NC(=O)c2ccc3c(c2)OCCO3)c1,inactive
14,NC(=O)C1(c2ccccc2)OC1c1ccccc1 (stereo unspecified),inactive
15,CCS(=O)(=O)c1ccc2oc(Nc3cccc(OC)c3)nc2c1,"inconclusive: 20.2 µM [activator, partial curve, poor fit]"
16,CCOC(=O)/C(=C/c1ccccc1)NC(=O)c1ccco1,"inconclusive: 7.27 µM [activator, partial curve, poor fit]"
17,CC(=O)Nc1cccc(C(=O)OCC(=O)NCc2cc(C)c(O)c(C)c2)c1,"inconclusive: 128 µM [activator, partial curve]"
18,Cc1ccccc1-c1nnc(CS(=O)(=O)c2ccccc2)o1,"inconclusive: 2.58 µM [activator, full curve]"
19,OC1(c2ccc(Br)cc2)CN(c2ccccc2)C2=[N+]1CCS2 (stereo unspecified),"inconclusive: 0.255 µM [activator, full curve, poor fit]"
20,COc1ccccc1Nc1ncnc2c1cnn2-c1cccc(C)c1,inactive
21,CCN1C(=O)[C@@H]2[C@@H](c3ccc(-c4ccc(C(C)=O)cc4)c(OC)c3)N3CCC[C@@]3(C(=O)OC)[C@@H]2C1=O,"inconclusive: 20.5 µM [activator, partial curve, poor fit]"
22,Cc1cc(C)c(NS(=O)(=O)c2ccc(NC(=O)CCC(=O)O)cc2)c(C)c1,inactive

# Sorted by SMILES length (ascending): part of the list above.
row,SMILES,Potency
20,COc1ccccc1Nc1ncnc2c1cnn2-c1cccc(C)c1,inactive
18,Cc1ccccc1-c1nnc(CS(=O)(=O)c2ccccc2)o1,"inconclusive: 2.58 µM [activator, full curve]"
10,CCOC(=O)N/N=C1\CCS(=O)(=O)c2ccc(Cl)cc21,inactive
13,CCC(=O)Nc1cccc(NC(=O)c2ccc3c(c2)OCCO3)c1,inactive
19,OC1(c2ccc(Br)cc2)CN(c2ccccc2)C2=[N+]1CCS2 (stereo unspecified),"inconclusive: 0.255 µM [activator, full curve, poor fit]"
7,Cc1nn(CC(=O)c2ccc(Cl)s2)c(C)c1[N+](=O)[O-],"inconclusive: 0.0183 µM [activator, full curve, poor fit]"
12,Cc1ccc(C(=O)Nc2ccc(S(=O)(=O)N3CCCC3)cc2)cc1,"inconclusive: 9.03 µM [activator, full curve, poor fit]"
3,COc1ccccc1-c1nnc(SCC(=O)NNC(=O)c2ccccc2F)n1C,"inconclusive: 0.0103 µM [activator, full curve, poor fit]"
5,COc1cc(-c2nc3ccccn3c2/N=C/c2cccc(OC)c2O)ccc1O,"inconclusive: 16.3 µM [activator, partial curve, poor fit]"
6,CC(=O)Nc1ccc(NC(=O)c2ccc(NS(=O)(=O)c3cc(C(C)(C)C)ccc3C)cc2)cc1,"inconclusive: 14.5 µM [activator, full curve, poor fit]"
11,CCS(=O)(=O)C1=NN2C(=N)/C(=C\c3ccc(OCCOc4cccc(OC)c4)c(OC)c3)C(=O)N=C2S1,inactive
21,CCN1C(=O)[C@@H]2[C@@H](c3ccc(-c4ccc(C(C)=O)cc4)c(OC)c3)N3CCC[C@@]3(C(=O)OC)[C@@H]2C1=O,"inconclusive: 20.5 µM [activator, partial curve, poor fit]"

# The listing continues.

row,SMILES,Potency
1,CN(c1ccccc1)S(=O)(=O)c1ccc(Cl)c(C(=O)NCCc2c[nH]c3ccccc23)c1,inactive
2,CCOc1ccc2ccc(OCC)c(/C=N/n3cnnc3)c2c1,"inconclusive: 14.3 µM [activator, partial curve, poor fit]"
3,O=C(Nc1ccc(F)cc1)C1CCCCC1,"inconclusive: 25.8 µM [activator, single point]"
4,O=C(NCc1ccc2c(c1)OCO2)C1CCC(=O)N1C1CCCC1 (stereo unspecified),"inconclusive: 14.5 µM [activator, single point]"
5,CCC(C)Sc1cccc(-c2nc3ccc(Cl)cn3c2NCc2ccccc2)c1 (stereo unspecified),inactive
6,COc1ccccc1CNC(=O)C1CC(c2ccccc2C(F)(F)F)=NO1 (stereo unspecified),"inconclusive: 29 µM [activator, single point]"
7,CC1=C(C(=O)OCc2ccccc2)C(c2cccnc2)n2ncnc2N1 (stereo unspecified),"inconclusive: 0.0041 µM [activator, full curve, poor fit]"
8,Cc1c(C(=O)Nc2cccnc2)oc2ccc(Br)cc12,"inconclusive: 161 µM [activator, partial curve, poor fit]"
9,CCOc1ccc(OCCC(=O)N(CC(=O)Nc2ccccc2C(F)(F)F)Cc2ccco2)cc1,inactive
10,c1coc(-c2ccnc3nc(-n4cccc4)nn23)c1,"inconclusive: 29 µM [activator, single point]"
11,COc1ccc(/C(O)=C2/C(=O)C(=O)N(CCCN3CCOCC3)C2c2ccc(C(C)C)cc2)cc1 (stereo unspecified),"inconclusive: 0.0648 µM [activator, full curve, poor fit]"
12,COc1cccc2sc(N(CCCN(C)C)C(=O)COc3ccc(Cl)cc3)nc12,"inconclusive: 32.1 µM [activator, partial curve, poor fit]"
13,CCOC(=O)C1=C(C)N=c2s/c(=C3\C(=O)Nc4ccccc43)c(=O)n2C1c1ccc2c(c1)OCO2 (stereo unspecified),"inconclusive: 72.7 µM [activator, single point]"
14,O=C(CSC1=NS(=O)(=O)c2cc(F)ccc2N1)Nc1ccccc1F,"inconclusive: 0.129 µM [activator, full curve, poor fit]"
15,C(=N\Nc1nn2cnnc2c2ccccc12)/c1ccco1,inactive
16,Cc1ccc(NC(=O)CSc2nnc(-c3ccccn3)n2C)cc1,inactive
17,CN1C/C(=C/c2cccs2)C(=O)/C(=C\c2cccs2)C1,"inconclusive: 0.029 µM [activator, full curve, poor fit]"
18,CCOC(=O)C1=C(COC(=O)c2ccc(Cl)cc2[N+](=O)[O-])NC(=O)NC1C (stereo unspecified),"inconclusive: 5.78 µM [activator, full curve, poor fit]"
19,O=S(=O)(NCc1ccncc1)c1ccc(Br)s1,"inconclusive: 5.08 µM [activator, full curve, poor fit]"
20,CCN(CC)CCN(Cc1cc2cc(C)ccc2[nH]c1=O)C(=O)Nc1ccccc1OC,inactive
21,COC(=O)c1cc(Br)cn1S(=O)(=O)c1ccccc1,"inconclusive: 0.23 µM [activator, full curve, poor fit]"
22,Cc1nnc(SCC(=O)N(C)CC(=O)Nc2ccc(F)cc2)n1Cc1ccccc1,inactive

row,SMILES,Potency
1,CCc1nnc(NC(=O)C2Cc3ccccc3CN2S(=O)(=O)c2ccc(C)cc2)s1 (stereo unspecified),"inconclusive: 18.3 µM [activator, partial curve]"
2,O=C(NCc1ccccn1)c1cccn1-c1ncc(C(F)(F)F)cc1Cl,"inconclusive: 0.0409 µM [activator, full curve, poor fit]"
3,CC(C)(C)OC(=O)N1CCC(CNC(=O)c2cccs2)CC1,"inconclusive: 5.78 µM [activator, single point]"
4,O=C(NC1CCCCC1)c1cc2nc3c(c(C(F)(F)F)n2n1)CCCC3,"inconclusive: 2.05 µM [activator, partial curve]"
5,O=C1NC(=O)/C(=C\c2cn(Cc3ccccc3F)c3ccccc23)N1,"inconclusive: 0.023 µM [activator, full curve, poor fit]"
6,COc1ccccc1NC(=O)COC(=O)c1ccc2c(c1)nc(C)n2-c1ccccc1,"inconclusive: 0.103 µM [activator, full curve, poor fit]"
7,CCCN1C(=O)/C(=C/c2ccncc2)SC1=S,inactive
8,COc1ccc(NC(C)c2cc(Cl)ccc2O)cc1 (stereo unspecified),"inconclusive: 0.129 µM [activator, full curve, poor fit]"
9,O=C(/C=C/c1ccc(F)cc1)Nc1ccc2[nH]c(=O)[nH]c2c1,"inconclusive: 1.8 µM [activator, full curve]"
10,O=C(COC(=O)c1ccc2c(c1)C(=O)N(Cc1ccncc1)C2=O)Nc1ccccc1[N+](=O)[O-],"inconclusive: 2.55 µM [activator, full curve]"
11,CSCCC(NC(=O)c1ccc(Cl)cc1)C(=O)NC(C)(C)C (stereo unspecified),inactive
12,CCc1cc(=O)oc2cc(OCC(=O)NCCCn3ccnc3)ccc12,"inconclusive: 0.0727 µM [activator, full curve, poor fit]"
13,CCc1ccc(OCCCC(=O)NCc2ccccc2)cc1,inactive
14,N=C1/C(=C\c2ccc(-c3ccc(C(=O)O)cc3)o2)C(=O)N=C2SC=C(c3ccccc3)N12,inactive
15,Cc1ccc(NC(=S)N(Cc2ccco2)C(C)c2cccs2)cc1 (stereo unspecified),"inconclusive: 25.8 µM [activator, partial curve, poor fit]"
16,O=C(COc1coc(CN2CCN(c3ccccc3)CC2)cc1=O)NCC1CCCO1 (stereo unspecified),"inconclusive: 18.3 µM [activator, single point]"
17,O=C(c1cc2c(cc1Br)OCCCO2)N1CCCCC1,"inconclusive: 0.0103 µM [activator, full curve, poor fit]"
18,C=C(C(=O)c1ccccc1)C(C(=C)C(=O)c1ccccc1)c1ccc(OC)cc1,"inconclusive: 14.5 µM [activator, partial curve, poor fit]"
19,CCc1ccc(NC(=O)[C@H](NC(=O)[C@@H]2Cc3ccccc3CN2)c2ccccc2)cc1,"inconclusive: 12.9 µM [activator, partial curve]"
20,CC(=O)c1cccc(NC(=O)N2C3CCC2CC(NC(=O)Nc2ccccc2)C3)c1 (stereo unspecified),inactive
21,CSc1ccc(S(=O)(=O)Nc2ccc(OCC(=O)N3CCOCC3)cc2)cc1,"inconclusive: 0.648 µM [activator, full curve]"
22,CCOC(=O)c1[nH]c(C)c(C(=O)Nc2cc(OC)ccc2OC)c1C,"inconclusive: 0.916 µM [activator, partial curve, poor fit]"
